# Measured values: US20230203127A1
# Results are given in words; binding and its absence hold for the method and conditions named. Binding calls can cover weak binding; strength is not graded here.
# Target: HLA-A*02:01 (human)
# Experiment: UV peptide-exchange ELISA, exchange yield grade
row,Binder,binding
1,YLFSQGLQGL [… (SEQ ID NO: 60)],binds
2,HLLGEGAFAQV [… (SEQ ID NO: 58)],binds
3,ALYPKEITL [… (SEQ ID NO: 61)],binds
4,ALLQALMEL [… (SEQ ID NO: 7)],binds
5,KLLPMVIQL [… (SEQ ID NO: 63)],binds
6,GLAFLPASV [… (SEQ ID NO: 74)],binds
7,GLLGKVTSV [… (SEQ ID NO: 27)],binds
8,FTAEFLEKV [… (SEQ ID NO: 76)],binds
9,AVFNLVHVV [… (SEQ ID NO: 44)],binds
10,IVTEIISEI [… (SEQ ID NO: 41)],binds
11,KISDFGLATV [… (SEQ ID NO: 48)],binds
12,VIIKGLEEI [… (SEQ ID NO: 35)],binds
13,VLSTRVTNV [… (SEQ ID NO: 72)],binds
14,QLMNLIRSV [… (SEQ ID NO: 68)],binds
15,VLQQESNFL [… (SEQ ID NO: 38)],binds
16,HLFDKIIKI [… (SEQ ID NO: 55)],binds
17,ILAEEPIYI [… (SEQ ID NO: 81)],binds
18,SLSEKSPEV [… (SEQ ID NO: 65)],binds
19,IKVTDPQLLEL [… (SEQ ID NO: 28)],binds
20,YLVPGLVAA [… (SEQ ID NO: 54)],binds
21,TLDRNSLYV [… (SEQ ID NO: 33)],binds
22,ALYGNVQQV [… (SEQ ID NO: 77)],binds
23,ILLSVLHQL [… (SEQ ID NO: 50)],binds
24,VLFGELPAL [… (SEQ ID NO: 4)],binds
25,FLPVSVVYV [… (SEQ ID NO: 45)],binds
26,HMSGKLTNV [… (SEQ ID NO: 71)],binds

row,Binder,binding
1,TVLEEIGNRV [… (SEQ ID NO: 79)],binds
2,AMFPDTIPRV [… (SEQ ID NO: 66)],binds
3,GLVDIMVHL [… (SEQ ID NO: 5)],binds
4,LDSEALLTL [… (SEQ ID NO: 51)],binds
5,YLEDGFAYV [… (SEQ ID NO: 39)],binds
6,GLTEKTVLV [… (SEQ ID NO: 70)],binds
7,KQMSISTGL [… (SEQ ID NO: 42)],binds
8,KIWEELSVLEV [… (SEQ ID NO: 40)],binds
9,GLNGFNVLL [… (SEQ ID NO: 47)],binds
10,VLTGQVHEL [… (SEQ ID NO: 80)],binds
11,SLYAGSNNQV [… (SEQ ID NO: 64)],binds
12,FLNAIETAL [… (SEQ ID NO: 6)],binds
13,AQHLSTLLL [… (SEQ ID NO: 53)],binds
14,FLIENLLAA [… (SEQ ID NO: 67)],binds
15,ALLDGALQL [… (SEQ ID NO: 75)],binds
16,ALADGIKSFLL [… (SEQ ID NO: 59)],binds
17,LKVLKADVVL [… (SEQ ID NO: 69)],binds
18,GLLETTGLLAT [… (SEQ ID NO: 31)],binds
19,QIVELIEKI [… (SEQ ID NO: 37)],binds
20,SLVENIHVL [… (SEQ ID NO: 62)],binds
21,KLIGNIHGNEV [… (SEQ ID NO: 49)],binds
22,TLYPGRFDYV [… (SEQ ID NO: 57)],binds
23,TIGIPFPNV [… (SEQ ID NO: 52)],binds
24,TLNTLDINL [… (SEQ ID NO: 34)],binds
25,SLITGQDLLSV [… (SEQ ID NO: 9)],binds
26,TVLQELINV [… (SEQ ID NO: 36)],binds

# Continued, values first:
row,binding,Binder
1,binds,LLLESDPKVYSL [… (SEQ ID NO: 281)]
2,binds,HLWGHALFL [… (SEQ ID NO: 280)]
3,binds,SLYALHVKA [… (SEQ ID NO: 282)]
4,binds,VLIEYNFSI [… (SEQ ID NO: 271)]
5,binds,KLMDPGSLPPL [… (SEQ ID NO: 284)]
6,binds,GLLDCPIFL [… (SEQ ID NO: 269)]
7,binds,FVMEGEPPKL [… (SEQ ID NO: 272)]
8,binds,AVPPPPSSV [… (SEQ ID NO: 275)]
9,binds,KLQEELNKV [… (SEQ ID NO: 277)]
10,binds,FLLEREQLL [… (SEQ ID NO: 84)]
11,binds,GLLENSPHL [… (SEQ ID NO: 83)]
12,binds,RMPTVLQCV [… (SEQ ID NO: 276)]
13,binds,SLDKDIVAL [… (SEQ ID NO: 268)]
14,binds,YLLDMPLWYL [… (SEQ ID NO: 267)]
15,binds,FLTEMVHFI [… (SEQ ID NO: 286)]
16,binds,VLMDEGAVLTL [… (SEQ ID NO: 279)]
17,binds,VLEDKVLSV [… (SEQ ID NO: 278)]
18,binds,SLNKQIETV [… (SEQ ID NO: 273)]
19,binds,MLLDTVQKV [… (SEQ ID NO: 285)]
20,binds,FLLDKPQDL [… (SEQ ID NO: 266)]
21,binds,TLYNPERTITV [… (SEQ ID NO: 274)]
22,binds,ALSELLQQV [… (SEQ ID NO: 283)]
23,binds,ILAEEPIYIRV [… (SEQ ID NO: 82)]
24,binds,TLLTFFHEL [… (SEQ ID NO: 270)]
